# Reference: paper PMC8939493
# The chains behind the UniProt entries cited, without tags or fusion partners.
# UniProt P42224: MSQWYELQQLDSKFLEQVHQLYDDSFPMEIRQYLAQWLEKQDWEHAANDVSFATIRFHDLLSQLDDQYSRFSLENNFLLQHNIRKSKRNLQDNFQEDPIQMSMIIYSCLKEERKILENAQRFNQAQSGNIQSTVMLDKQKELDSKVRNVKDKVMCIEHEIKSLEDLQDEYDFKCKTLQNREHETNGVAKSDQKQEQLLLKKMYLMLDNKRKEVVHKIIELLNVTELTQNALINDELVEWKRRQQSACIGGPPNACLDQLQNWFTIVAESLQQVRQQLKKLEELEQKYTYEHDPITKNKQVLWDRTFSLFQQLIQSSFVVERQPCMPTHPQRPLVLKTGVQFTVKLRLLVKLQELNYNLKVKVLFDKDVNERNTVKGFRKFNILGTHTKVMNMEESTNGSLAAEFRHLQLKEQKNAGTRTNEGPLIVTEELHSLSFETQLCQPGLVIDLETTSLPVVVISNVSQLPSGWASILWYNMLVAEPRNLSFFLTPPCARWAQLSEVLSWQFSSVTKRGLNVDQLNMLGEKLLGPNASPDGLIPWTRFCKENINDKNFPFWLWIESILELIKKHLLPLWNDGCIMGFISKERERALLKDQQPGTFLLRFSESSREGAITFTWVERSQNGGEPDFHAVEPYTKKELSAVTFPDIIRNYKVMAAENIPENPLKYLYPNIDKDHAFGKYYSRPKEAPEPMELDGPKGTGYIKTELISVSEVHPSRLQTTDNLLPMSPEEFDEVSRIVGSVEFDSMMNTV
# These are yes or no findings as the source states them, for the method shown. Binding seen in cells or lysates may run through a third protein. Some entries that bind do so weakly or less than the wild type.
# Molecular target: STAT1 (UniProt P42224)
# Assay: co-IP
substance,measurement,value
"SARS-CoV-2 NSP13 helicase, V5-tagged (from UniProt P0DTD1 5325-5925) (enzyme)",binding,binds
